The test has as its target T1, recombinant ISRAA protein (rISRAA), N-terminal 6His-tagged, expressed from p-SELECT-zeo in Expi293F cells (mouse) (UniProt B2CXA1).
T1 sequence: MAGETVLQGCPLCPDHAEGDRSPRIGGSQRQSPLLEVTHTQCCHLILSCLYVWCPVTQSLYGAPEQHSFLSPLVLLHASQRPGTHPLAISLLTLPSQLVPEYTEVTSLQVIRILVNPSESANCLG
In words: pull-down; His-rISRAA immobilised on cobalt resin beads from Expi293F lysate (Pierce His Protein Interaction Pull-Down Kit), washed 5 times; incubated with EL4 cell lysate 2 hours at 4°C; eluted with 300 mM imidazole; western blot with anti-Fyn antibody; beads alone as control; only the target purified.

Amino acid sequences for entries named in this document (tags omitted).
UniProt P39688: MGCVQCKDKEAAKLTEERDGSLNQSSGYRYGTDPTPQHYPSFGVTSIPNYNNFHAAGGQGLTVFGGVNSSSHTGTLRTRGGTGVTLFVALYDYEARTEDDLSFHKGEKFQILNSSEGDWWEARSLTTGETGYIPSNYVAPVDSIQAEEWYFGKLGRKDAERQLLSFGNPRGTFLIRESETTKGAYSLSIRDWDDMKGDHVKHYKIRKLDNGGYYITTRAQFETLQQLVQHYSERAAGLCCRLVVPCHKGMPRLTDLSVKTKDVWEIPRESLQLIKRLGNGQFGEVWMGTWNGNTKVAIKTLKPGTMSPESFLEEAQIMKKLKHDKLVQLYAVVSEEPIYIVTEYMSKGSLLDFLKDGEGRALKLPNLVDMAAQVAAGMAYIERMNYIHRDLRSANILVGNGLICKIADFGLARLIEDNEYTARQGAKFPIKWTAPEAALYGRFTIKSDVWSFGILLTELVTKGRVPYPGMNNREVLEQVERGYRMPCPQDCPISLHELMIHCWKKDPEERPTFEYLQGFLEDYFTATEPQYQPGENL

Results on 1 substance are retold here after PMC4762778.

Results are given in words; binding and its absence hold for the method and conditions named. Binding seen in cells or lysates may run through a third protein. Some entries that bind do so weakly or less than the wild type. Tags and fused reporters may be left off the sequences shown.

As for “Fyn protein (59 KDa), cellular, from EL4 mouse T-cell line lysate (from UniProt P39688 1-537)”, the binding result is recorded as “binds”.
